Like-named read-outs stand apart in the source and are kept apart here. Results are given in words; binding and its absence hold for the method and conditions named. Binding seen in cells or lysates may run through a third protein. Some entries that bind do so weakly or less than the wild type. Sequences can lack the tags named with a protein.
Legend:
Assay in all cases: co-IP
[1] = molecular target: T1, HA-MbSTING (STING of Monosiga brevicollis), expressed in HEK 293T (Monosiga brevicollis)
T1 sequence: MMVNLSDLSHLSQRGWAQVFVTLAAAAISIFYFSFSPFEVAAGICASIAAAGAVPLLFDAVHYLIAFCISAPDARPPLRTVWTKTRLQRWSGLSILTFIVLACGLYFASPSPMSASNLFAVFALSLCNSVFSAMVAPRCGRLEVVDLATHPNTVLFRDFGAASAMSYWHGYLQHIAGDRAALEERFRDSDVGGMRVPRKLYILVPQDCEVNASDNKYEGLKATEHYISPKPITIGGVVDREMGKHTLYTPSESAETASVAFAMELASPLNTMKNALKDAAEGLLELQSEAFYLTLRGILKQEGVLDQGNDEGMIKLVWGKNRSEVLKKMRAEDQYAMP

[2] = molecular target: T2, HA-MmSTING (STING of Mus musculus), expressed in HEK 293T (Mus musculus)
T2 sequence: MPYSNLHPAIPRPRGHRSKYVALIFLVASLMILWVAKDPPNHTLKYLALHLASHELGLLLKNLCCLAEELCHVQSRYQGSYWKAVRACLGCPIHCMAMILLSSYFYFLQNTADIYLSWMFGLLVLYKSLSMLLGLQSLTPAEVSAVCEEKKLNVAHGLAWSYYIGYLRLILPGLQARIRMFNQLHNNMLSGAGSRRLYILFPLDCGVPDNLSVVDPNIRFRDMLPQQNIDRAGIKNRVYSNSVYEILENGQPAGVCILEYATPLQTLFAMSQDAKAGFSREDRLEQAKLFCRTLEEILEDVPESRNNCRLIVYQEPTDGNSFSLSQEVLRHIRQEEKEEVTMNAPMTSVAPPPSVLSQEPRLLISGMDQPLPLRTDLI

[3] = molecular target: HA-NvSTING (STING of Nematostella vectensis), expressed in HEK 293T (Nematostella vectensis)
[4] = molecular target: T3, HA-DrSTING (STING of Danio rerio), expressed in HEK 293T (Danio rerio)
T3 sequence: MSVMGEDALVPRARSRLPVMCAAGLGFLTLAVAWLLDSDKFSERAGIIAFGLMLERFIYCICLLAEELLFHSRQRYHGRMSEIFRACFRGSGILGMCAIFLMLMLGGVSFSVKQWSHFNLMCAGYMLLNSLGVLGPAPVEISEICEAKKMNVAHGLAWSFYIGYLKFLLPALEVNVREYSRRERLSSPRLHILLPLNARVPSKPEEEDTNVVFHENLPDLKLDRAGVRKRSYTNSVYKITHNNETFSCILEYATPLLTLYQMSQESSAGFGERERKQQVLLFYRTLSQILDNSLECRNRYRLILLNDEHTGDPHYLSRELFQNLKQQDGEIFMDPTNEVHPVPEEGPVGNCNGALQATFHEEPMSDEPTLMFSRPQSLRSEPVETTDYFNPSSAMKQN

[5] = molecular target: T4, HA-XtSTING (STING of Xenopus tropicalis), expressed in HEK 293T (Xenopus tropicalis)
T4 sequence: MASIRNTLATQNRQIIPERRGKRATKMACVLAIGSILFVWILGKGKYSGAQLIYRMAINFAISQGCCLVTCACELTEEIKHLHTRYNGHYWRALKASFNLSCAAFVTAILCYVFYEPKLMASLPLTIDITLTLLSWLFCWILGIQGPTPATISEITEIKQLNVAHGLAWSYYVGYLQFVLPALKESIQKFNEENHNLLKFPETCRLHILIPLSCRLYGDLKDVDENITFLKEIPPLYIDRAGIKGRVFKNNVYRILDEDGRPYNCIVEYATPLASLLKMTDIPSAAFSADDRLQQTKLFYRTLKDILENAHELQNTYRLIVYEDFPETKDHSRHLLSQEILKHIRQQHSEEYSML

[6] = molecular target: T2, HA-MmSTING (STING of Mus musculus), expressed in HEK 293T (Mus musculus); remark: listed apart in the source
[7] = molecular target: T3, HA-DrSTING (STING of Danio rerio), expressed in HEK 293T (Danio rerio); remark: listed apart in the source
[8] = molecular target: T5, DmSTING (STING homolog of Drosophila melanogaster) (Drosophila melanogaster)
T5 sequence: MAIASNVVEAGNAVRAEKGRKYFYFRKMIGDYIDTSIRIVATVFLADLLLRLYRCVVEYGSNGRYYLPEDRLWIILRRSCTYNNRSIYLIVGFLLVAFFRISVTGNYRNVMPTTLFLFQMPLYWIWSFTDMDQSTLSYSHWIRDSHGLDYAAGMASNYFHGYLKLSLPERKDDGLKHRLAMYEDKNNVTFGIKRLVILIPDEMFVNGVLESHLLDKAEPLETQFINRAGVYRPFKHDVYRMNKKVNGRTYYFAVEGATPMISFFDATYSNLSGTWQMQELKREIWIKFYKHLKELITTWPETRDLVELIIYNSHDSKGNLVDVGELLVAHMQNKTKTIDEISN

[9] = molecular target: T6, HA-tagged CgSTING (STING homolog of the mollusk Crassostrea gigas) (Crassostrea gigas)
T6 sequence: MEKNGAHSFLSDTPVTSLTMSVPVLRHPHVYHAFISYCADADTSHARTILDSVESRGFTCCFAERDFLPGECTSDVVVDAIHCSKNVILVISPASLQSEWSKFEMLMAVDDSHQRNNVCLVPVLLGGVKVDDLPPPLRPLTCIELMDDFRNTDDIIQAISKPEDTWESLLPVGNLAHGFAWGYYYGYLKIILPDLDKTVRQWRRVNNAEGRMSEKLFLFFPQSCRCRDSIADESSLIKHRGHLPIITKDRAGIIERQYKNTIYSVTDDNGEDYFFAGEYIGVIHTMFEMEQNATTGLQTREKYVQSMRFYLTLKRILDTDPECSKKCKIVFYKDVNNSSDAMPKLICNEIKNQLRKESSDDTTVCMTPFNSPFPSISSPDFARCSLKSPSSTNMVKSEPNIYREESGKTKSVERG

[10] = molecular target: HA-tagged FsSTING (STING homolog of the bacterium Flavobacteriaceae sp.) (Flavobacteriaceae sp.)

B1: MmFADS2-FLAG (fatty acid desaturase 2 of Mus musculus) (protein)
chain: MGKGGNQGEGSTERQAPMPTFRWEEIQKHNLRTDRWLVIDRKVYNVTKWSQRHPGGHRVIGHYSGEDATDAFRAFHLDLDFVGKFLKPLLIGELAPEEPSLDRGKSSQITEDFRALKKTAEDMNLFKTNHLFFFLLLSHIIVMESLAWFILSYFGTGWIPTLVTAFVLATSQAQAGWLQHDYGHLSVYKKSIWNHVVHKFVIGHLKGASANWWNHRHFQHHAKPNIFHKDPDIKSLHVFVLGEWQPLEYGKKKLKYLPYNHQHEYFFLIGPPLLIPMYFQYQIIMTMISRRDWVDLAWAISYYMRFFYTYIPFYGILGALVFLNFIRFLESHWFVWVTQMNHLVMEIDLDHYRDWFSSQLAATCNVEQSFFNDWFSGHLNFQIEHHLFPTMPRHNLHKIAPLVKSLCAKHGIEYQEKPLLRALIDIVSSLKKSGELWLDAYLHK
For B1, the binding [1] was “binds”, the binding [2] was “binds” and the binding [3] was “binds”. The binding [4] was “binds”, the binding [5] was “binds” and the binding [6] was “binds”. The binding [7] was “binds”, the binding [8] was “binds” and the binding [9] was “no binding”. The binding [10] was “no binding”.
